Source: article PMC3904817
Read-outs that look alike come from different tables or passages of the source. No constants are given. Whether binding was seen depends on the method and setting. Binding seen in cells or lysates may run through a third protein. Binding calls can cover weak binding; strength is not graded here. For part of these data: Sequences can lack the tags named with a protein.

Chains of the proteins cited; added tags and fusions are not shown. Lines headed by an entry give the natural chain unless they say otherwise; changes in a name come on top.
UniProt Q9VN77: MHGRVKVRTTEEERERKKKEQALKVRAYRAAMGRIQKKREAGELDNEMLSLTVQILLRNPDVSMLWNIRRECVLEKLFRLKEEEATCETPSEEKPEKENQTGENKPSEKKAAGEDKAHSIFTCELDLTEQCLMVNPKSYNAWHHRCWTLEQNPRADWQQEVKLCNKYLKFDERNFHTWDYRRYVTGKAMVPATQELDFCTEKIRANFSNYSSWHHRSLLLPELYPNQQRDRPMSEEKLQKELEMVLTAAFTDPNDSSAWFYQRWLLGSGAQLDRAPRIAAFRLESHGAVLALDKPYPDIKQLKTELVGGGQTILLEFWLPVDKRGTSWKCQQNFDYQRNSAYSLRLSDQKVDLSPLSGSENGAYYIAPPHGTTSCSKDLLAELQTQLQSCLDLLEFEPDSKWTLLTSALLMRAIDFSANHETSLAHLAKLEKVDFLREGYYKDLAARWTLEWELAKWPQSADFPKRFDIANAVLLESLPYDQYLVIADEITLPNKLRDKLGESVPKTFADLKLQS
UniProt Q9W501: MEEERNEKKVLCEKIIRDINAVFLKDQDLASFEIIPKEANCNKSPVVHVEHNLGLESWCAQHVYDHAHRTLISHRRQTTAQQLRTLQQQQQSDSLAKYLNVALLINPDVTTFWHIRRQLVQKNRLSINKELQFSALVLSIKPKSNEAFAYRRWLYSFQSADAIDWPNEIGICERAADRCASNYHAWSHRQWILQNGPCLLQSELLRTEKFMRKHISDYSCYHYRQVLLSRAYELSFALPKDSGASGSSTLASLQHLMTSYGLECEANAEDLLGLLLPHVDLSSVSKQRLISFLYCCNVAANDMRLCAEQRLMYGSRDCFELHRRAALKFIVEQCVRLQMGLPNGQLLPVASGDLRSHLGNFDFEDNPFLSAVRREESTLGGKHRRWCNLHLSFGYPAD
UniProt Q9XZ68: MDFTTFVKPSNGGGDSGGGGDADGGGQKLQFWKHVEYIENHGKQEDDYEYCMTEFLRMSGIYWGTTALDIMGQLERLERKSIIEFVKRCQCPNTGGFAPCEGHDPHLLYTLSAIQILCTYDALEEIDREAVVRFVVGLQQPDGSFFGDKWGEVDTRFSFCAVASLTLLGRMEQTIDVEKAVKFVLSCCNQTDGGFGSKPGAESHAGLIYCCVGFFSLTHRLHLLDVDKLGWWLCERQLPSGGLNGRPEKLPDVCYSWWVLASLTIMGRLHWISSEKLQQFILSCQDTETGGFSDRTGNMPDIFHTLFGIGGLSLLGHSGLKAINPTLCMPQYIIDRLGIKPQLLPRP
UniProt O18332: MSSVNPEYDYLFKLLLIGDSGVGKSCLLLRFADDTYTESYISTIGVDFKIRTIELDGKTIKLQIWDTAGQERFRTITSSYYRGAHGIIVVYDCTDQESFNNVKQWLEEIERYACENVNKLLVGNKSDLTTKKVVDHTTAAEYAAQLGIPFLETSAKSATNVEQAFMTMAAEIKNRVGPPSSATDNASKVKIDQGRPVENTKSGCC

Columns and labels:
[1] = target: RabGGTα (PTAR3), HA-tagged (Drosophila) (UniProt Q9VN77); assay: co-IP; transfected Drosophila S2 cells, harvested 48 h after transfection; lysis buffer 50 mM Tris-HCl pH 7.5, 150 mM NaCl, 5% glycerol, 0.5% TritonX-100; lysate incubated with α-HA beads overnight; Western blot (Figure 5C-D)
[2] = target: Tempura (Temp), HA-tagged (Drosophila) (UniProt Q9W501); assay: co-IP; transfected Drosophila S2 cells, α-HA beads, same lysis buffer; Temp with Rab1 or Rab11, with or without cotransfected RabGGTβ and REP (Figure 7A-B)
[3] = target: RabGGTβ (His–RabGGTβ–V5) (Drosophila) (UniProt Q9XZ68); assay: co-IP; RabGGTβ competition assay in S2 cells: RabGGTβ kept at a low level, RabGGTβ and Temp transfected at the same level, RabGGTα increased gradually; RabGGTβ pulled down by α-V5 beads (Figure 5E)
[4] = target: RabGGTα (PTAR3), HA-tagged (Drosophila) (UniProt Q9VN77); assay: co-IP; transfected Drosophila S2 cells, harvested 48 h after transfection; lysis buffer 50 mM Tris-HCl pH 7.5, 150 mM NaCl, 5% glycerol, 0.5% TritonX-100; lysate incubated with α-HA beads overnight; Western blot (Figure 5C-D); remark: listed apart in the source
[5] = target: Tempura (Temp), HA-tagged (Drosophila) (UniProt Q9W501); assay: as above

For “RabGGTβ (His–RabGGTβ–V5) (from UniProt Q9XZ68)”, the binding [1] was “binds”.

For Rab1 (from UniProt O18332 1-205), the binding [2] was “binds”.

In the case of “Tempura (Temp), HA-tagged (from UniProt Q9W501)”, the binding [3] is reported as “binds”.

B1: Rab escort protein (REP), FLAG-tagged (protein, UniProt Q9V8W3 1-511)
chain: MLDDLPEQFDLVVIGTGFTESCIAAAGSRIGKSVLHLDSNEYYGDVWSSFSMDALCARLDQEVEPHSALRNARYTWHSMEKESETDAQSWNRDSVLAKSRRFSLDLCPRILYAAGELVQLLIKSNICRYAEFRAVDHVCMRHNGEIVSVPCSRSDVFNTKTLTIVEKRLLMKFLTACNDYGEDKCNEDSLEFRGRTFLEYLQAQRVTEKISSCVMQAIAMCGPSTSFEEGMQRTQRFLGSLGRYGNTPFLFPMYGCGELPQCFCRLCAVYGGIYCLKRAVDDIALDSNSNEFLLSSAGKTLRAKNVVSAPGYTPVSKGIELKPHISRGLFISSSPLGNEELNKGGGGVNLLRLLDNEGGREAFLIQLSHYTGACPEGLYIFHLTTPALSEDPASDLAIFTSQLFDQSDAQIIFSSYFTIAAQSSKSPAAEHIYYTDPPTYELDYDAAIANARDIFGKMFPDADFLPRAPDPEEIVVDGEDPSALNEHTLPEDLRAQLHDMQQATQEMDIQE
With B1 the binding [4] was “binds” and the binding [5] was “binds”.

B2: Rab11 (protein, UniProt O18335 1-214)
chain: MGAREDEYDYLFKVVLIGDSGVGKSNLLSRFTRNEFNLESKSTIGVEFATRSIEVDGKTIKAQIWDTAGQERYRAITSAYYRGAVGALLVYDIAKHLTYENVERWLRELRDHADQNIVIMLVGNKSDLRHLRSVPTDEAKLFAERNGLSFIETSALDSTNVETAFQNILTEIYRIVSQKQIRDPPEGDVIRPSNVEPIDVKPTVTADVRKQCCQ
With B2 the binding [2] was “binds”.
